This passage reports binding results from article PMC3974651.

The target in test [1] is T1, SQUAMOSA PROMOTER BINDING PROTEIN LIKE 2 (SPL2), yeast two-hybrid fusion (Arabidopsis thaliana) (UniProt Q9S840).
T1 sequence: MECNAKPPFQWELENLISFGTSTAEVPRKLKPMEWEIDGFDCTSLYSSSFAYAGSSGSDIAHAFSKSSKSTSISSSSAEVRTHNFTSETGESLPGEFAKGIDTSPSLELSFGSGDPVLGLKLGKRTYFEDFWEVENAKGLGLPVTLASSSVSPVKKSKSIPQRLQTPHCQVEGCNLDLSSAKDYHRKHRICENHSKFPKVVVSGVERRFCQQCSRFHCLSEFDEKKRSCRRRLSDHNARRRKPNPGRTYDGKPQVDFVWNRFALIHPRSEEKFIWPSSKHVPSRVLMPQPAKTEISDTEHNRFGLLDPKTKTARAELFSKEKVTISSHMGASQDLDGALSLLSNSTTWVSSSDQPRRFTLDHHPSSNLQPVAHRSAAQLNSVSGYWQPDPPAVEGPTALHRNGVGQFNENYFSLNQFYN
In words: two-hybrid; Matchmaker GAL4 Two-Hybrid System, yeast strain AH109, growth on SD/-Leu/-Trp/-His with 15 mM 3-amino-1,2,4-triazole; three independent clones for each transformation.

Test [2] deals with T2, SQUAMOSA PROMOTER BINDING PROTEIN LIKE 9 (SPL9), yeast two-hybrid fusion (Arabidopsis thaliana) (UniProt Q700W2).
T2 sequence: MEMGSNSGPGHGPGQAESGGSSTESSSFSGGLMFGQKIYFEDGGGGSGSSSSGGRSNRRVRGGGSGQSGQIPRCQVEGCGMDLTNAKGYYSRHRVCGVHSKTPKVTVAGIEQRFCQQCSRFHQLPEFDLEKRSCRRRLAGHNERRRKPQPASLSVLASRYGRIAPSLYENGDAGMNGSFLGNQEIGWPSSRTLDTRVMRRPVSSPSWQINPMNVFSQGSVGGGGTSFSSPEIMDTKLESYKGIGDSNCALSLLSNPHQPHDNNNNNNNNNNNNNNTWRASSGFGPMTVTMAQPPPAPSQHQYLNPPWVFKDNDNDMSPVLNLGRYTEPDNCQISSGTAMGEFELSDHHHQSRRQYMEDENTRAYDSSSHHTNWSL
The description is as above.

The target of test [3] is T3, SQUAMOSA PROMOTER BINDING PROTEIN LIKE 9 (SPL9), miRNA-resistant version, fused to the C-terminal half of luciferase (Arabidopsis thaliana) (UniProt Q700W2).
T3 sequence: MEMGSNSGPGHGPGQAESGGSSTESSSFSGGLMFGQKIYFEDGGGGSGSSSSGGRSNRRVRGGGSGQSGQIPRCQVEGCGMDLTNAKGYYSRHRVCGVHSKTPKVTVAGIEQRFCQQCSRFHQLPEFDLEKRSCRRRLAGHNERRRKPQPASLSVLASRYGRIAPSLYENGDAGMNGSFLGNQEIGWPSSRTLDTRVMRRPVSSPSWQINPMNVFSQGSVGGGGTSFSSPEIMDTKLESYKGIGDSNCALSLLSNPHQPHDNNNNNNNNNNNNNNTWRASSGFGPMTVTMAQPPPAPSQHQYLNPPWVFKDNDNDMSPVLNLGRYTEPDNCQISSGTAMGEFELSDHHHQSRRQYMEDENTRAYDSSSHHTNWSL
The test can be described thus: split reporter; split firefly luciferase complementation; LOMs-nLUC and cLUC-rSPL9 co-infiltrated by Agrobacterium into N. benthamiana leaves with 35S::P19-HA; 0.8 mM luciferin infiltrated after 3 days; cLUC and nLUC alone as controls.

No constants are given. Whether binding was seen depends on the method and setting. For part of these data: Binding seen in cells or lysates may run through a third protein. Some entries that bind do so weakly or less than the wild type. Sequences can lack the tags named with a protein.

B1: LOST … 3 (LOM3), yeast two-hybrid fusion (protein, UniProt O81316 1-558)
chain: MPLPFEEFQGKGISCFSSFSSSFPQPPSSPLLSHRKARGGEEEEEEVPAAEPTSVLDSLISPTSSSTVSSSHGGNSAVGGGGDATTDEQCGAIGLGDWEEQVPHDHEQSILGLIMGDSTDPSLELNSILQTSPTFHDSDYSSPGFGVVDTGFGLDHHSVPPSHVSGLLINQSQTHYTQNPAAIFYGHHHHTPPPAKRLNPGPVGITEQLVKAAEVIESDTCLAQGILARLNQQLSSPVGKPLERAAFYFKEALNNLLHNVSQTLNPYSLIFKIAAYKSFSEISPVLQFANFTSNQALLESFHGFHRLHIIDFDIGYGGQWASLMQELVLRDNAAPLSLKITVFASPANHDQLELGFTQDNLKHFASEINISLDIQVLSLDLLGSISWPNSSEKEAVAVNISAASFSHLPLVLRFVKHLSPTIIVCSDRGCERTDLPFSQQLAHSLHSHTALFESLDAVNANLDAMQKIERFLIQPEIEKLVLDRSRPIERPMMTWQAMFLQMGFSPVTHSNFTESQAECLVQRTPVRGFHVEKKHNSLLLCWQRTELVGVSAWRCRSS
B1: the binding result in test [1] and in test [2] was “binds” each time.

B2: LOST … 3 (LOM3), miRNA-resistant version, fused to the N-terminal half of luciferase (protein, UniProt O81316 1-558)
chain: MPLPFEEFQGKGISCFSSFSSSFPQPPSSPLLSHRKARGGEEEEEEVPAAEPTSVLDSLISPTSSSTVSSSHGGNSAVGGGGDATTDEQCGAIGLGDWEEQVPHDHEQSILGLIMGDSTDPSLELNSILQTSPTFHDSDYSSPGFGVVDTGFGLDHHSVPPSHVSGLLINQSQTHYTQNPAAIFYGHHHHTPPPAKRLNPGPVGITEQLVKAAEVIESDTCLAQGILARLNQQLSSPVGKPLERAAFYFKEALNNLLHNVSQTLNPYSLIFKIAAYKSFSEISPVLQFANFTSNQALLESFHGFHRLHIIDFDIGYGGQWASLMQELVLRDNAAPLSLKITVFASPANHDQLELGFTQDNLKHFASEINISLDIQVLSLDLLGSISWPNSSEKEAVAVNISAASFSHLPLVLRFVKHLSPTIIVCSDRGCERTDLPFSQQLAHSLHSHTALFESLDAVNANLDAMQKIERFLIQPEIEKLVLDRSRPIERPMMTWQAMFLQMGFSPVTHSNFTESQAECLVQRTPVRGFHVEKKHNSLLLCWQRTELVGVSAWRCRSS
Turning to B2, in test [3], the binding result is on record as “binds”.
